Source: publication PMC9856072, “Complexed Crystal Structure of the Dihydroorotase Domain of Human CAD Protein with the Anticancer Drug 5-Fluorouracil” (Biomolecules, 2023)
Results are given in words; binding and its absence hold for the method and conditions named. Some entries that bind do so weakly or less than the wild type.

Target: dihydroorotase domain of human CAD protein (huDHOase) (human) (UniProt P27708)
Assay: crystal structure; huDHOase co-crystallised with malate (pH 6.0, 1.64 Å) or with 5-FU (pH 6.5, 1.97 Å); space group C222(1), one molecule per asymmetric unit; dimer A-A' built by crystal symmetry and selected through PISA; both purified

B1: dihydroorotase domain of human CAD protein (huDHOase) (domain or fragment, UniProt P27708 1456-1846)
chain: MTSQKLVRLPGLIDVHVHLREPGGTHKEDFASGTAAALAGGITMVCAMPNTRPPIIDAPALALAQKLAEAGARCDFALFLGASSENAGTLGTVAGSAAGLKLYLNETFSELRLDSVVQWMEHFETWPSHLPIVAHAEQQTVAAVLMVAQLTQRSVHICHVARKEEILLIKAAKARGLPVTCEVAPHHLFLSHDDLERLGPGKGEVRPELGSRQDVEALWENMAVIDCFASDHAPHTLEEKCGSRPPPGFPGLETMLPLLLTAVSEGRLSLDDLLQRLHHNPRRIFHLPPQEDTYVEVDLEHEWTIPSHMPFSKAHWTPFEGQKVKGTVRRVVLRGEVAYIDGQVLVPPGYGQDVRKWPQGAVPQLPPSAPATSEMTTTPERPRRGIPGLPD
modifications: carbamylated lysine at 1556 (Kcx1556)
With B1 the binding was “binds”.
